Experimental data taken from patent US20100292258A1, “SUBSTITUTED AROMATIC HETEROCYCLIC COMPOUNDS AS FUNGICIDES” (SYNGENTA CROP PROTECTION, INC., priority 2007, published 2010).
Some entries share one result that the patent states for a list of compounds.

Experiments:
Type in all cases: cell-based
Botrytis cinerea = Botrytis cinerea (Gray mould) growth inhibition in nutrient broth, microtiter plate; settings: 20 ppm; PDB broth, 24° C., inhibition of growth determined photometrically after 72 hours
Septoria tritici = Septoria tritici (leaf blotch) growth inhibition in nutrient broth, microtiter plate; settings: 20 ppm; PDB broth, 24° C., inhibition of growth determined photometrically after 72 hours
[1] = test system: Mycosphaerella arachidis (syn. Cercospora arachidicola); assay: Mycosphaerella arachidis (brown leaf spot of groundnut) growth inhibition in nutrient broth, microtiter plate; settings: 20 ppm; PDB broth, 24° C., inhibition of growth determined photometrically after 72 hours at 620 nm
[2] = test system: Monographella nivalis (syn. Microdochium nivale, Fusarium nivale); assay: Monographella nivalis (snow mould, foot rot of cereals) growth inhibition in nutrient broth, microtiter plate; settings: 20 ppm; PDB broth, 24° C., inhibition of growth determined photometrically after 72 hours at 620 nm

OC(c1cccnc1)c1c(-c2ccccc2Cl)ccn1-c1cccc(Cl)c1 (stereo not drawn) [Compound 63]
at least 80%: control of Botrytis cinerea (Botrytis cinerea) | control of Septoria tritici (Septoria tritici) | control of Mycosphaerella arachidis [1] | control of Monographella nivalis [2]

COc1ccccc1-c1ccn(-c2cccc(Cl)c2)c1C(O)c1cccnc1 (stereo not drawn) [Compound 66]
at least 80%: control of Botrytis cinerea (Botrytis cinerea) | control of Mycosphaerella arachidis [1] | control of Monographella nivalis [2]

Cc1ccccc1-c1ccn(-c2cccc(Cl)c2)c1C(O)c1cccnc1 (stereo not drawn) [Compound 69]
at least 80%: control of Botrytis cinerea (Botrytis cinerea) | control of Septoria tritici (Septoria tritici) | control of Mycosphaerella arachidis [1] | control of Monographella nivalis [2]

OC(c1cccnc1)c1c(-c2ccsc2)ccn1-c1cccc(Cl)c1 (stereo not drawn) [Compound 71]
at least 80%: control of Botrytis cinerea (Botrytis cinerea) | control of Septoria tritici (Septoria tritici) | control of Mycosphaerella arachidis [1] | control of Monographella nivalis [2]

Cc1ccc(-c2ccn(-c3cccc(Cl)c3)c2C(O)c2cccnc2)cc1 (stereo not drawn) [Compound 70]
at least 80%: control of Botrytis cinerea (Botrytis cinerea) | control of Septoria tritici (Septoria tritici) | control of Mycosphaerella arachidis [1] | control of Monographella nivalis [2]

OC(c1cccnc1)c1c(-c2cccc(Cl)c2)ccn1-c1cccc(Cl)c1 (stereo not drawn) [Compound 62, [1,3-Bis-(3-chloro-phenyl)-1H-pyrrol-2-yl]-pyridin-3-yl-methanol]
at least 80%: control of Septoria tritici (Septoria tritici) | control of Mycosphaerella arachidis [1] | control of Monographella nivalis [2]

COc1ccc(-c2ccn(-c3cccc(Cl)c3)c2C(O)c2cccnc2)c(Cl)c1 (stereo not drawn) [Compound 80]
at least 80%: control of Botrytis cinerea (Botrytis cinerea) | control of Septoria tritici (Septoria tritici) | control of Mycosphaerella arachidis [1] | control of Monographella nivalis [2]

OC(c1cccnc1)c1c(-c2cccnc2Cl)ccn1-c1cccc(Cl)c1 (stereo not drawn) [Compound 78]
at least 80%: control of Mycosphaerella arachidis [1] | control of Monographella nivalis [2]

OC(c1cccnc1)c1c(-c2ccc(Cl)cc2)ccn1-c1cccc(Cl)c1 (stereo not drawn) [Compound 65]
at least 80%: control of Botrytis cinerea (Botrytis cinerea) | control of Septoria tritici (Septoria tritici) | control of Mycosphaerella arachidis [1] | control of Monographella nivalis [2]

Cc1ccc(-c2ccn(-c3cccc(Cl)c3)c2C(O)c2cccnc2)c(C)c1 (stereo not drawn) [Compound 81]
at least 80%: control of Septoria tritici (Septoria tritici) | control of Mycosphaerella arachidis [1] | control of Monographella nivalis [2]

OC(c1cccnc1)c1c(-c2ccc(Cl)cc2Cl)ccn1-c1cccc(Cl)c1 (stereo not drawn) [Compound 74]
at least 80%: control of Botrytis cinerea (Botrytis cinerea) | control of Septoria tritici (Septoria tritici) | control of Mycosphaerella arachidis [1] | control of Monographella nivalis [2]

OC(c1cccnc1)c1c(-c2ccc(OC(F)(F)F)cc2)ccn1-c1cccc(Cl)c1 (stereo not drawn) [Compound 82]
at least 80%: control of Botrytis cinerea (Botrytis cinerea) | control of Septoria tritici (Septoria tritici) | control of Mycosphaerella arachidis [1] | control of Monographella nivalis [2]

OC(c1cccnc1)c1c(-c2ccc(Br)cc2)ccn1-c1cccc(Cl)c1 (stereo not drawn) [Compound 73]
at least 80%: control of Botrytis cinerea (Botrytis cinerea) | control of Septoria tritici (Septoria tritici) | control of Mycosphaerella arachidis [1] | control of Monographella nivalis [2]

OC(c1cccnc1)c1c(-c2ccc(Cl)s2)ccn1-c1cccc(Cl)c1 (stereo not drawn) [Compound 79]
at least 80%: control of Botrytis cinerea (Botrytis cinerea) | control of Septoria tritici (Septoria tritici) | control of Mycosphaerella arachidis [1] | control of Monographella nivalis [2]

OC(c1cccnc1)c1c(-c2ccc(F)cc2Cl)ccn1-c1cccc(Cl)c1 (stereo not drawn) [Compound 85]
at least 80%: control of Botrytis cinerea (Botrytis cinerea) | control of Septoria tritici (Septoria tritici) | control of Mycosphaerella arachidis [1] | control of Monographella nivalis [2]

OC(c1cccnc1)c1c(-c2ccc(C(F)(F)F)cc2)ccn1-c1cccc(Cl)c1 (stereo not drawn) [Compound 64]
at least 80%: control of Botrytis cinerea (Botrytis cinerea) | control of Septoria tritici (Septoria tritici) | control of Mycosphaerella arachidis [1] | control of Monographella nivalis [2]

OC(c1cccnc1)c1c(-c2ccc(F)cc2F)ccn1-c1cccc(Cl)c1 (stereo not drawn) [Compound 76]
at least 80%: control of Botrytis cinerea (Botrytis cinerea) | control of Septoria tritici (Septoria tritici) | control of Mycosphaerella arachidis [1] | control of Monographella nivalis [2]

Cc1cc(Cl)ccc1-c1ccn(-c2cccc(Cl)c2)c1C(O)c1cccnc1 (stereo not drawn) [Compound 83]
at least 80%: control of Septoria tritici (Septoria tritici) | control of Mycosphaerella arachidis [1] | control of Monographella nivalis [2]

COc1ccc(-c2ccn(-c3cccc(Cl)c3)c2C(O)c2cccnc2)cc1 (stereo not drawn) [Compound 67]
at least 80%: control of Botrytis cinerea (Botrytis cinerea) | control of Septoria tritici (Septoria tritici) | control of Mycosphaerella arachidis [1] | control of Monographella nivalis [2]

OC(c1cccnc1)c1c(-c2ccccc2F)ccn1-c1cccc(Cl)c1 (stereo not drawn) [Compound 75]
at least 80%: control of Botrytis cinerea (Botrytis cinerea) | control of Septoria tritici (Septoria tritici) | control of Mycosphaerella arachidis [1] | control of Monographella nivalis [2]

OC(c1cccnc1)c1c(-c2ccc(Cl)cc2F)ccn1-c1cccc(Cl)c1 (stereo not drawn) [Compound 84]
at least 80%: control of Botrytis cinerea (Botrytis cinerea) | control of Septoria tritici (Septoria tritici) | control of Mycosphaerella arachidis [1] | control of Monographella nivalis [2]

OC(c1cccnc1)c1c(-c2cccc(C(F)(F)F)c2)ccn1-c1cccc(Cl)c1 (stereo not drawn) [Compound 77]
at least 80%: control of Botrytis cinerea (Botrytis cinerea) | control of Septoria tritici (Septoria tritici) | control of Mycosphaerella arachidis [1] | control of Monographella nivalis [2]

OC(c1cccnc1)c1c(-c2ccc(F)cc2)ccn1-c1cccc(Cl)c1 (stereo not drawn) [Compound 68]
at least 80%: control of Botrytis cinerea (Botrytis cinerea) | control of Septoria tritici (Septoria tritici) | control of Mycosphaerella arachidis [1] | control of Monographella nivalis [2]

OC(c1cccnc1)c1c(-c2cccs2)ccn1-c1cccc(Cl)c1 (stereo not drawn) [Compound 72]
at least 80%: control of Botrytis cinerea (Botrytis cinerea) | control of Septoria tritici (Septoria tritici) | control of Mycosphaerella arachidis [1] | control of Monographella nivalis [2]
